Measurements from PMC5438986.
No constants are given. Whether binding was seen depends on the method and setting. Binding seen in cells or lysates may run through a third protein. Some binding calls cover weakened binding; strength is not graded here. For part of these data: Sequences can lack the tags named with a protein.

By UniProt entry, the sequences of proteins in these tests, tags left out.
UniProt Q9UKV8: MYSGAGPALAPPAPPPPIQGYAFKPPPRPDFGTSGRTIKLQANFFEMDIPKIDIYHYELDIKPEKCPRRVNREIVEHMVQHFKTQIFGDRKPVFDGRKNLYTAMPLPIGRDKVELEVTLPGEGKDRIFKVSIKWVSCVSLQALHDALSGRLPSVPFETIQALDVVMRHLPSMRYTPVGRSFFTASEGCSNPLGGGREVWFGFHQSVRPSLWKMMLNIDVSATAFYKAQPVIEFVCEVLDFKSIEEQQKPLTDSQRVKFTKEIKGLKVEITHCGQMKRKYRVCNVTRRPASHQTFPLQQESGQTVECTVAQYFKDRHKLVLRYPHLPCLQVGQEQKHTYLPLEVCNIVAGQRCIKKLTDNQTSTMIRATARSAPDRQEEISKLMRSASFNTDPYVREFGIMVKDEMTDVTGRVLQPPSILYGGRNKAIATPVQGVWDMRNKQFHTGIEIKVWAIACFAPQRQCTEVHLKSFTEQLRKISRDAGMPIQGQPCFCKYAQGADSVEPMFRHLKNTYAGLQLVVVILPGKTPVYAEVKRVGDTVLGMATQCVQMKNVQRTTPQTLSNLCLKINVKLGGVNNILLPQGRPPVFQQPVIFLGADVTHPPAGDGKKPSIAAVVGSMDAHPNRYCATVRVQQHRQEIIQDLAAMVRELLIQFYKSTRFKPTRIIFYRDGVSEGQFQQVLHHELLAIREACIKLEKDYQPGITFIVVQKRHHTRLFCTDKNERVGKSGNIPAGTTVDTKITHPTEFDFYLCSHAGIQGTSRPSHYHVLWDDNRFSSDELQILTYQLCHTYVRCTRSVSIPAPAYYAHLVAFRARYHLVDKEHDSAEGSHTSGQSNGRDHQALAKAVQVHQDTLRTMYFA
UniProt Q92793: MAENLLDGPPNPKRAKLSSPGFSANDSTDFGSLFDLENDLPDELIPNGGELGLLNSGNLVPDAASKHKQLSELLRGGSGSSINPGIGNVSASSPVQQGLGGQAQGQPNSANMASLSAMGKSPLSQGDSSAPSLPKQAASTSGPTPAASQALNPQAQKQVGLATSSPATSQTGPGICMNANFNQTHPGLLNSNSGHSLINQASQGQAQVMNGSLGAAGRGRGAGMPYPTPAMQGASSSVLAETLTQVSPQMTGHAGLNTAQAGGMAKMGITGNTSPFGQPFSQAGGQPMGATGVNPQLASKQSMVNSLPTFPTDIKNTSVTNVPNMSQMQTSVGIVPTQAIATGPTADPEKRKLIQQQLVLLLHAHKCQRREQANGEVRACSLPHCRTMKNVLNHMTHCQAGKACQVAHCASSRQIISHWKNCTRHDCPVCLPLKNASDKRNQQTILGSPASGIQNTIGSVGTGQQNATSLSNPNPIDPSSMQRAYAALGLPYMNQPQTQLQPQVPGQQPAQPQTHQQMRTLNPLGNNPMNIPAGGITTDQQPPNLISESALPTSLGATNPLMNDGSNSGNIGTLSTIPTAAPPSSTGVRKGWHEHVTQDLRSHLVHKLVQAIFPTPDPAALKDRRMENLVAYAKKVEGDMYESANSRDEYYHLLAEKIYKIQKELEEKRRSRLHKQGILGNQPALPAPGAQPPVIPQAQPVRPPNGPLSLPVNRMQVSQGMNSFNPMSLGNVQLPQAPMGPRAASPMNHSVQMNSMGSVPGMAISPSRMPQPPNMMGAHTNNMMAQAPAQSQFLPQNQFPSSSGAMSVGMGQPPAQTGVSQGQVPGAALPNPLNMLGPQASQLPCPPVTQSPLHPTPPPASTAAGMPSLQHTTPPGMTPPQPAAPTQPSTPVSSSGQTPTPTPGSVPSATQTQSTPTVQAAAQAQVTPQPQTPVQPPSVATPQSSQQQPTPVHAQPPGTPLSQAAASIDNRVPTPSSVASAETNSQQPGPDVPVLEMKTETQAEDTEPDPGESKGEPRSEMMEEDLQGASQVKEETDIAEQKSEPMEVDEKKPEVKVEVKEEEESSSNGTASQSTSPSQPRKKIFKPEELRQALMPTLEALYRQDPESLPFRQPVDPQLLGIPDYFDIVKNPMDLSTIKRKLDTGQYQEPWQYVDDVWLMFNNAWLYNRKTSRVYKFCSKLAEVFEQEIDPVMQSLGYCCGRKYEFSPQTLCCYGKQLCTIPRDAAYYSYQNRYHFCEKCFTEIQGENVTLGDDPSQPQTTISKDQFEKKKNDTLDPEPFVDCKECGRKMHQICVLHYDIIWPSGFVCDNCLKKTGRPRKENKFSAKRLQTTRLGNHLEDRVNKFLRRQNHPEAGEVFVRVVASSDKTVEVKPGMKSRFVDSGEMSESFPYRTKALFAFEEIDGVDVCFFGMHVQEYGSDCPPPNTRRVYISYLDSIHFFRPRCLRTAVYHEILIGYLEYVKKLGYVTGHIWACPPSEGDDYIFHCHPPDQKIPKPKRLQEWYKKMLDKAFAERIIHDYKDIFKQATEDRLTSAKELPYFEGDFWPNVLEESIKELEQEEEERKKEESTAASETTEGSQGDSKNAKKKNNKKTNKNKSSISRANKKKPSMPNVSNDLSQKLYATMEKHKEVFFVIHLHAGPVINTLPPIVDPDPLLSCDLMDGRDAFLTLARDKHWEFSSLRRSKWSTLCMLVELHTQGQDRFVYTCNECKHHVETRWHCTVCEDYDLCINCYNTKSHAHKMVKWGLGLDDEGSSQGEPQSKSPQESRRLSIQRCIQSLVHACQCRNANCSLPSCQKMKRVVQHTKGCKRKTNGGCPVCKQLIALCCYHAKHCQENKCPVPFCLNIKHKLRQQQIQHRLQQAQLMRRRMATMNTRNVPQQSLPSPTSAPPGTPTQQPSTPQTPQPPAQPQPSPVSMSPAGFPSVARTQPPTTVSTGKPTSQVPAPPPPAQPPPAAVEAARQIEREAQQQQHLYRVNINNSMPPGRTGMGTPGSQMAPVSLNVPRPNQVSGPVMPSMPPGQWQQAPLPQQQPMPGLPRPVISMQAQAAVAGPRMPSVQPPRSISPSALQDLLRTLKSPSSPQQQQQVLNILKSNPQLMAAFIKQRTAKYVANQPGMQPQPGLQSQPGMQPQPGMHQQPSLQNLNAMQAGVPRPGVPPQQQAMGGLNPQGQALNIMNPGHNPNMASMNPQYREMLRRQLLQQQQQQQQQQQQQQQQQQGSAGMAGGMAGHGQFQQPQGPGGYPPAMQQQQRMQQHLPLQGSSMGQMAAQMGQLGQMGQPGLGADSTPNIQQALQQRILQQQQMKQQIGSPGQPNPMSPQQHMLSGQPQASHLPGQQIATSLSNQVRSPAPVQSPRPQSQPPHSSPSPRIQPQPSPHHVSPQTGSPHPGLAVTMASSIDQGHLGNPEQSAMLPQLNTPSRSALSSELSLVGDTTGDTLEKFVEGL

How the values were obtained:
Flag-IRF3 [1] = molecular target: T1, Flag-IRF3 (UniProt Q14653); test: co-IP; HEK293T cells co-transfected with two tagged proteins, lysed in RIPA buffer 36 h later; precipitated with tag antibodies (anti-HA, anti-Flag) and Protein A/G agarose, western blot
T1 sequence: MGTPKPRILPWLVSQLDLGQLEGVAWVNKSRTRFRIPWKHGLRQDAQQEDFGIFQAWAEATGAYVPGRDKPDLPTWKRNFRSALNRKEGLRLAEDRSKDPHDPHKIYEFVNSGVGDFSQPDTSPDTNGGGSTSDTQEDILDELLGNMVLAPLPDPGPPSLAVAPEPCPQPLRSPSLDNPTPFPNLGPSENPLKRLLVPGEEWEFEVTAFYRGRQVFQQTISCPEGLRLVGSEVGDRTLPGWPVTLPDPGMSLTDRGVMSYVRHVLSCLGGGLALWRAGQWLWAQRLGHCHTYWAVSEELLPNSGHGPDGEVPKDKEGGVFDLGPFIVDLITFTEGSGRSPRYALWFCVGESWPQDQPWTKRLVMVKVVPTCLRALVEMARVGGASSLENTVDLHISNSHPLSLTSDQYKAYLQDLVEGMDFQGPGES

Flag-IRF3(198–427) = molecular target: T2, Flag-IRF3(198–427) (UniProt Q14653); test: as above
T2 sequence: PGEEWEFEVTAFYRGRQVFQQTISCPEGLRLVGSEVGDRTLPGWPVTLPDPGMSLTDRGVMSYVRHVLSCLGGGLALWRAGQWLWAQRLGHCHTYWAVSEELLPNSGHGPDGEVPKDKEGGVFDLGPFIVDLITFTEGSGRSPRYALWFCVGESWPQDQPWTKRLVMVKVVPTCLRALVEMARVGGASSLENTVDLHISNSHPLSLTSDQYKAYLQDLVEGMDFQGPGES

Flag-IRF3 [2] = molecular target: T1, Flag-IRF3; test: co-IP; HEK293T cells co-transfected with Flag-IRF3 or Flag-IRF3-5D and HA-AGO2, HA-AGO2-MIDdel or empty vector; after 36 h stimulated with SeV for 12 h; lysates precipitated with anti-Flag and blotted with anti-CBP (endogenous CBP)
[3] = molecular target: T3, endogenous IRF3 (human (endogenous in HEK293T and A549)) (UniProt Q14653); test: co-IP; endogenous proteins; A549 cells stimulated with SeV for 6 h; anti-IRF3 antibody used for immunoprecipitation
T3 sequence: T1 sequence

[4] = molecular target: T3, endogenous IRF3 (human (endogenous in HEK293T and A549)); test: co-IP; endogenous proteins; HEK293T cells stimulated with SeV for 3 h; anti-IRF3 antibody used for immunoprecipitation
HA-IRF3 = molecular target: T4, HA-IRF3 (UniProt Q14653); test: co-IP; HEK293T cells co-transfected with two tagged proteins, lysed in RIPA buffer 36 h later; precipitated with tag antibodies (anti-HA, anti-Flag) and Protein A/G agarose, western blot
T4 sequence: T1 sequence

## HA-AGO2 (from UniProt Q9UKV8 1-859)
Flag-IRF3 [1]
  binding: binds
Flag-IRF3(198–427)
  binding: binds

## endogenous CBP (from UniProt Q92793 1-2442)
Flag-IRF3 [2]
  binding: binds

## endogenous AGO2 (from UniProt Q9UKV8 1-859)
[3]
  binding: binds
[4]
  binding: binds

## Flag-AGO2 (from UniProt Q9UKV8 1-859)
HA-IRF3
  binding: binds
